No constants are given. Whether binding was seen depends on the method and setting. In cells and extracts the contact can be indirect. Some results given as binding are weak or reduced against the parent protein; the word gives no strength. Tags and fused reporters may be left off the sequences shown.

Protein sequences, listed by entry. Tags and fused reporters are not part of them. Lines headed by an entry give the natural chain unless they say otherwise; changes in a name come on top.
UniProt Q96AZ6: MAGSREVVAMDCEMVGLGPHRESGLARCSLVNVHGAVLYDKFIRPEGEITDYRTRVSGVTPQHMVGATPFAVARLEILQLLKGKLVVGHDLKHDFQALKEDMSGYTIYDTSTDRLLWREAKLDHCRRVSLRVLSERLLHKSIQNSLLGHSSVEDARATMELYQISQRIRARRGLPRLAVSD

The target in assay [1] is T1, FLAG-YTHDF2 (YTH-domain family 2) (UniProt Q9Y5A9).
T1 sequence: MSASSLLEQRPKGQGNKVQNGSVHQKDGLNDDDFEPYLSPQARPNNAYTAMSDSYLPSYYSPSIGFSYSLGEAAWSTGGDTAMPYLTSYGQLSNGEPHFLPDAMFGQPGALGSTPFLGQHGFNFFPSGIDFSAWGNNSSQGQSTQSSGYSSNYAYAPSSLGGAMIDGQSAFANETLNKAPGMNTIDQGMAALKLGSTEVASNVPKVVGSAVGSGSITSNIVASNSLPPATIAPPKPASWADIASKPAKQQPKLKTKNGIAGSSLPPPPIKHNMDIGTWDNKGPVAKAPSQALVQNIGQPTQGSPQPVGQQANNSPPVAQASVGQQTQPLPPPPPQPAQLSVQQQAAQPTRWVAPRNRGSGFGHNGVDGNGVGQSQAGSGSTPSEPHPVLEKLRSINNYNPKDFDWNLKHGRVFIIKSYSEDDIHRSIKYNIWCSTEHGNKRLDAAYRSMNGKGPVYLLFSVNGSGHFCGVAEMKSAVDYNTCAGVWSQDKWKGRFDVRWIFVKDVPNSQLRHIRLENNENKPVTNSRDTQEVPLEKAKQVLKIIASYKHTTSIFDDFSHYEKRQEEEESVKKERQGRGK
Kind of assay: co-IP; FLAG-YTHDF2 and HA-ISG20^D94G co-transfected into HepG2 cells, with or without HBV-WT plasmid, with or without IFN-α (2000 IU/ml, 24h); IP with FLAG antibody, blot with FLAG and HA antibody; lysis buffer 20 mM Tris HCl pH 8.0, 137 mM NaCl, 1% NP-40, 2 mM EDTA; 4°C overnight.

For assay [2], the target named is T1, FLAG-YTHDF2 (YTH-domain family 2). Kind of assay: co-IP; FLAG-YTHDF2 co-transfected with HBV-WT, HBV-M1, HBV-M2 or HBV-M3 into HepG2 cells, IFN-α (2000 IU/ml, 24h) to induce endogenous ISG20; IP with FLAG antibody, blot with FLAG and ISG20 antibody.

Regarding “HA-ISG20^D94G (from UniProt Q96AZ6 1-181) (enzyme)”, in assay [1], the binding result is on record as “binds”.

As for “endogenous ISG20 (IFN-α induced) (from UniProt Q96AZ6 1-181) (enzyme)”, the binding result in assay [2] was “binds”.

The values are drawn from paper PMC7046284.
